PubChem BioAssay AID1224826 | NIAID, 2016
The whole screen tested about 17,000 reagents; shown is a random part of them. Over the whole deposit, about 1,110 (6.6%) are marked active. 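Active means lowered or raised reporter signal; replicate intensities are raw and not normalised per plate.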 Unmarked entries are inactive. Further read-outs or replicates are left out here. Reagent sequences are not shown.

Test: 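Knock-downs that raise or lower Tnf reporter signal after endotoxin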 (primary screen)
Cells: RAW264.7 G9 macrophages from mouse bearing reporters for p65 (GFP) and the Tnf promoter (mCherry)
Knock-down reagent: siRNA pool against mouse genes, 100 nM
Timing: 16 h of LPS stimulation, after 2 days of siRNA transfection
Challenge: bacterial lipopolysaccharide (Salmonella minnesota R595), 10 ng/ml
Measured: 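Imaged Tnf reporter mCherry in nuclei, minus background, normalised per plate to the median and expressed as robust z-scores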
Reading the numbers: Tnf reporter robust z-score: higher = stronger Tnf promoter reporter signal after LPS
Rule for the call: 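a well counts as active at a score of -1.3 or below (Tlr4 knock-down control median) or above 3 (raised signal); controls and wells holding fewer than 50 cells are excluded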
Meaning of the calls: active = Tnf reporter clearly lowered or raised; inactive = no clear change in Tnf reporter

Which result is listed for Cpb2 (carboxypeptidase B2)?
Tnf reporter robust z-score: -0.45; fewer than 50 cells in well: enough cells in well

Which result is listed for Ccdc134 (coiled-coil domain containing 134)?
fewer than 50 cells in well: fewer than 50 cells per well; well left out of calls

With Zfp9 (zinc finger protein 9), what does the deposit list?
Tnf reporter robust z-score: 0.34; fewer than 50 cells in well: enough cells in well

With Bub1b (BUB1B, mitotic checkpoint serine/threonine kinase), how do the results read?
Tnf reporter robust z-score: 1.75; fewer than 50 cells in well: enough cells in well

For Serpinf1 (serine (or cysteine) peptidase inhibitor, clade F, member 1), how do the results read?
Tnf reporter robust z-score: -0.27; fewer than 50 cells in well: enough cells in well

For Dnttip1 (deoxynucleotidyltransferase, terminal, interacting protein 1), what was measured?
Tnf reporter robust z-score: -0.19; fewer than 50 cells in well: enough cells in well

What is on record for Smpd4 (sphingomyelin phosphodiesterase 4)?
Tnf reporter robust z-score: 1.48; fewer than 50 cells in well: enough cells in well

What is on record for Utf1 (undifferentiated embryonic cell transcription factor 1)?
Tnf reporter robust z-score: -0.18; fewer than 50 cells in well: enough cells in well

For Mgrn1 (mahogunin, ring finger 1), what was measured?
Tnf reporter robust z-score: 1.19; fewer than 50 cells in well: enough cells in well

With Kcns2 (K+ voltage-gated channel, subfamily S, 2), how do the results read?
Tnf reporter robust z-score: 0.11; fewer than 50 cells in well: enough cells in well

Reformatted: entries from further up
{"target gene": "Cpb2 (carboxypeptidase B2)", "Tnf reporter robust z-score": -0.45, "fewer than 50 cells in well": "enough cells in well"}
{"target gene": "Ccdc134 (coiled-coil domain containing 134)", "fewer than 50 cells in well": "fewer than 50 cells per well; well left out of calls"}
{"target gene": "Zfp9 (zinc finger protein 9)", "Tnf reporter robust z-score": 0.34, "fewer than 50 cells in well": "enough cells in well"}

Further records:
For Phf6 (PHD finger protein 6), how do the results read?
Tnf reporter robust z-score: -0.18; fewer than 50 cells in well: enough cells in well

For Guca1a (guanylate cyclase activator 1a (retina)), how do the results read?
Tnf reporter robust z-score: -0.06; fewer than 50 cells in well: enough cells in well

How did the screen score Rps6ka3 (ribosomal protein S6 kinase A3)?
Tnf reporter robust z-score: 0.16; fewer than 50 cells in well: enough cells in well

What is on record for Ackr5 (atypical chemokine receptor 5)?
Tnf reporter robust z-score: 0.24; fewer than 50 cells in well: enough cells in well

How did the screen score Zfp354b (zinc finger protein 354B)?
Tnf reporter robust z-score: 1.28; fewer than 50 cells in well: enough cells in well

What did the screen give for Aire (autoimmune regulator)?
Tnf reporter robust z-score: 0.21; fewer than 50 cells in well: enough cells in well

How did the screen score Sat1 (spermidine/spermine N1-acetyl transferase 1)?
Tnf reporter robust z-score: -0.8; fewer than 50 cells in well: enough cells in well

How did the screen score Zmat4 (zinc finger, matrin type 4)?
Tnf reporter robust z-score: -0.81; fewer than 50 cells in well: enough cells in well

For Or1ad6 (olfactory receptor family 1 subfamily AD member 6), what was measured?
fewer than 50 cells in well: fewer than 50 cells per well; well left out of calls

What did the screen give for Cyp27a1 (cytochrome P450, family 27, subfamily a, polypeptide 1)?
Tnf reporter robust z-score: 1.82; fewer than 50 cells in well: enough cells in well

Which result is listed for Smyd3 (SET and MYND domain containing 3)?
Tnf reporter robust z-score: -0.23; fewer than 50 cells in well: enough cells in well
